Results are given in words; binding and its absence hold for the method and conditions named. Where a sequence is shown, tags or fusion partners need not be part of it.
Experiments:
[1] = molecular target: NLRP1^CARD (D1374-S1473, G1467C), MBP tag cleaved (human) (UniProt Q9C000); test: negative stain EM of filament formation; purified MBP-fused protein cleaved with 3C protease for 3 h at 37 °C at different concentrations (0.1 to 30 µM), then negatively stained with 1% uranyl formate and imaged; both purified
[2] = molecular target: His-MBP-NLRP1^CARD (D1374-S1473, G1467C), uncleaved (human) (UniProt Q9C000); test: SEC; preparative SEC of amylose-purified His-MBP fusions (Superdex 200 for MBP-CARD, Superose 6 for MBP-UPA and MBP-NLRP1-CT); 25 mM Tris-HCl pH 7.5, 150 mM NaCl, 1 mM TCEP; both purified

Row | binding [1] | binding [2] | Binder
1 | no binding (tested: 30 µM) | – | NLRP1^CARD (D1374-S1473, G1467C), MBP tag cleaved (domain or fragment, UniProt Q9C000-1 1374-1473) DAPQLLHFVDQYREQLIARVTSVEVVLDKLHGQVLSQEQYERVLAENTRPSQMRKLFSLSQSWDRKCKDGLYQALKETHPHLIMELWEKGSKKCLLPLSS
2 | – | no binding | His-MBP-NLRP1^CARD (D1374-S1473, G1467C), uncleaved (domain or fragment, UniProt Q9C000-1 1374-1473) DAPQLLHFVDQYREQLIARVTSVEVVLDKLHGQVLSQEQYERVLAENTRPSQMRKLFSLSQSWDRKCKDGLYQALKETHPHLIMELWEKGSKKCLLPLSS

From paper PMC7794386, “Mechanism of filament formation in UPA-promoted CARD8 and NLRP1 inflammasomes” (Nature Communications, 2021)
